Test results taken from the supplement of paper PMC11732987, “Enantioselective OTUD7B fragment discovery through chemoproteomics screening and high-throughput optimisation” (Communications Chemistry, 2025).
The list shows a part of the results. The data scatter; read single values as rough.

By UniProt entry, the sequences of proteins in these tests, tags left out. Where a name states a change or a piece, a line headed by the entry shows the natural chain unless it says otherwise. Residues count along the entry.
UniProt Q0VDG4: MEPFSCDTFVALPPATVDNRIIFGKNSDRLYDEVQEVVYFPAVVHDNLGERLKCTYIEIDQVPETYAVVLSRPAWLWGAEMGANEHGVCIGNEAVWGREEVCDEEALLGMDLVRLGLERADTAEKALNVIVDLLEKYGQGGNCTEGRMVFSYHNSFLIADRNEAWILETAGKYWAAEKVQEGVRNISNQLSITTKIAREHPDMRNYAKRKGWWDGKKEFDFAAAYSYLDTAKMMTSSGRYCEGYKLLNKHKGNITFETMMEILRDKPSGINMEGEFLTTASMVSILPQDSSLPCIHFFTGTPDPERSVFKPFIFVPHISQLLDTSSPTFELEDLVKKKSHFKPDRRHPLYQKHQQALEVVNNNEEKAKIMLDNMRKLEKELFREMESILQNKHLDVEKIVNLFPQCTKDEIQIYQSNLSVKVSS
UniProt Q12874: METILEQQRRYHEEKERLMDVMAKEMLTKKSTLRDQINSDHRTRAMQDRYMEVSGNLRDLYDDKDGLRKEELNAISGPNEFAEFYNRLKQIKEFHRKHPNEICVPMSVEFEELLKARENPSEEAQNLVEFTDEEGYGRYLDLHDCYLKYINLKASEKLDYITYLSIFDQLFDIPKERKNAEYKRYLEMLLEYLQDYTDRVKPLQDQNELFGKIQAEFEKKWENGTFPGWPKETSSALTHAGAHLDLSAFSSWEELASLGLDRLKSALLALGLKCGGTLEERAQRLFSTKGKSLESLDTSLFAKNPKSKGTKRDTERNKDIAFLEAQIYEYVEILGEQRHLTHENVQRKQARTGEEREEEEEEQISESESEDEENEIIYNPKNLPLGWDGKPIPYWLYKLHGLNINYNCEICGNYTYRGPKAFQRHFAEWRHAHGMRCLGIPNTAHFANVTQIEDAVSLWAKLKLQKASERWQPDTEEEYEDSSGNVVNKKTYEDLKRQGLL
UniProt Q9H7N4, 981-1000: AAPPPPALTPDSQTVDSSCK
UniProt Q5HYK7: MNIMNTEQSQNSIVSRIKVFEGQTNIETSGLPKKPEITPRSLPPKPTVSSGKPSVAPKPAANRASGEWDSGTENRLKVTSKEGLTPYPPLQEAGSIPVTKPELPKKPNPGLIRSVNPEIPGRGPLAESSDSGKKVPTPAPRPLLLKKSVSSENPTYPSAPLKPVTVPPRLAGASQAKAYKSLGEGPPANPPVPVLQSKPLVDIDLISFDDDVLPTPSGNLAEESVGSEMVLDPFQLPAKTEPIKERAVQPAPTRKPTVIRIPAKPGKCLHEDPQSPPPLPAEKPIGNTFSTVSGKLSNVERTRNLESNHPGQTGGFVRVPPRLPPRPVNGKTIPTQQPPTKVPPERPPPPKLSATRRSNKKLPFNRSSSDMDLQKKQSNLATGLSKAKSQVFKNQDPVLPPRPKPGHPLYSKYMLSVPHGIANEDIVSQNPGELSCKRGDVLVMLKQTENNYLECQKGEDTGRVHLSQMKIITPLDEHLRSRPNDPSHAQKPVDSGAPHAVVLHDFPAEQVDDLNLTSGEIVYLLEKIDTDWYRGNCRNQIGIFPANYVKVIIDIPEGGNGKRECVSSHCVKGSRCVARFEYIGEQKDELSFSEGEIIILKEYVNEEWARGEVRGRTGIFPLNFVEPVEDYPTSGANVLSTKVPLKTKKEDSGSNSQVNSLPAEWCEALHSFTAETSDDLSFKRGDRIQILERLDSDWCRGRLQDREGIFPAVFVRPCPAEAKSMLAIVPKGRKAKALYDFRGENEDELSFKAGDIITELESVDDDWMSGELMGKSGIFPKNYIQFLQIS
UniProt Q13530: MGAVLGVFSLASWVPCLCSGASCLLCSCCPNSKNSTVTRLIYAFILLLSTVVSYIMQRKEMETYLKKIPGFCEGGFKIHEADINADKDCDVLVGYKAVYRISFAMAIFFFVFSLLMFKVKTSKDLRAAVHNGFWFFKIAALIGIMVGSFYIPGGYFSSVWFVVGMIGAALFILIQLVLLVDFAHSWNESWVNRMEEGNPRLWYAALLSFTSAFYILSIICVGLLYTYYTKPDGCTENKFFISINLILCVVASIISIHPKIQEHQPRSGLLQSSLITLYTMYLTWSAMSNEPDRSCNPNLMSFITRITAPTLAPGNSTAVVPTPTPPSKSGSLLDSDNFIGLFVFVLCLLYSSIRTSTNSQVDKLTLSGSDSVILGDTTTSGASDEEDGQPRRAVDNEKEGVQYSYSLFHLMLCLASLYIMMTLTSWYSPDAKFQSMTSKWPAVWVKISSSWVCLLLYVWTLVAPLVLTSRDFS
UniProt Q9Y512: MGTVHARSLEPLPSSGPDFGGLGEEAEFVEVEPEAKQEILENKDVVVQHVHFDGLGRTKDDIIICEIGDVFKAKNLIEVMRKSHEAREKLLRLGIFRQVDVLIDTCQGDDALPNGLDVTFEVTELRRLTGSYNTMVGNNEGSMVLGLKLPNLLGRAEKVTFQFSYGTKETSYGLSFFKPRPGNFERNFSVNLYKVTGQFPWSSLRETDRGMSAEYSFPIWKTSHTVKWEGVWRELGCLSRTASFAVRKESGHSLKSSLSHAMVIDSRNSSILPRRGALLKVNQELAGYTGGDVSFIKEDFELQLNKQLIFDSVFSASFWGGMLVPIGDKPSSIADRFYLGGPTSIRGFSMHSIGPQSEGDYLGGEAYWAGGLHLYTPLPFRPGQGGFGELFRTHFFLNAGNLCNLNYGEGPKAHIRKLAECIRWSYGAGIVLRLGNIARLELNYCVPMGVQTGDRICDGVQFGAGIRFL
UniProt Q9NVA2: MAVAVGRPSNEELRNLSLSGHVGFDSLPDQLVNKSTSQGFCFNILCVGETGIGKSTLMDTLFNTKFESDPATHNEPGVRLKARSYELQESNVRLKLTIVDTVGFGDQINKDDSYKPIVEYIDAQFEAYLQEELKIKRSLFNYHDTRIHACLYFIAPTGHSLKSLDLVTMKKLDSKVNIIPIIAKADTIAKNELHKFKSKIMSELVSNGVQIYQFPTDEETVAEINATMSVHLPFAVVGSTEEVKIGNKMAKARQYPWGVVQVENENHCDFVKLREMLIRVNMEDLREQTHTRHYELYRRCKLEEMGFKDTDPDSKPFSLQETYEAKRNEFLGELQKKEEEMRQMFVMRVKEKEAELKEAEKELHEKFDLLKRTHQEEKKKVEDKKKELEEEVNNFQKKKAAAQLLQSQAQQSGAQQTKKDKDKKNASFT
UniProt Q12765: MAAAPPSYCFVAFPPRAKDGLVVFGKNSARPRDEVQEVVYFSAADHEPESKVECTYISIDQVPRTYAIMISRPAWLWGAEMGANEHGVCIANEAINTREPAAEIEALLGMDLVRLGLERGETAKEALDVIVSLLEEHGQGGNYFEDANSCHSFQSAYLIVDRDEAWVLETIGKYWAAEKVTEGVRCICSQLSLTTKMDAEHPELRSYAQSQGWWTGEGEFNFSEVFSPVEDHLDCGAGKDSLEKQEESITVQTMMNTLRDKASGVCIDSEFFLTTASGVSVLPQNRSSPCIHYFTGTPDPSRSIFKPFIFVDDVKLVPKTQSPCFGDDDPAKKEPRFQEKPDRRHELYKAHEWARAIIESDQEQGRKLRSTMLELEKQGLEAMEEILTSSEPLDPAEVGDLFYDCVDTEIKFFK
UniProt Q99442: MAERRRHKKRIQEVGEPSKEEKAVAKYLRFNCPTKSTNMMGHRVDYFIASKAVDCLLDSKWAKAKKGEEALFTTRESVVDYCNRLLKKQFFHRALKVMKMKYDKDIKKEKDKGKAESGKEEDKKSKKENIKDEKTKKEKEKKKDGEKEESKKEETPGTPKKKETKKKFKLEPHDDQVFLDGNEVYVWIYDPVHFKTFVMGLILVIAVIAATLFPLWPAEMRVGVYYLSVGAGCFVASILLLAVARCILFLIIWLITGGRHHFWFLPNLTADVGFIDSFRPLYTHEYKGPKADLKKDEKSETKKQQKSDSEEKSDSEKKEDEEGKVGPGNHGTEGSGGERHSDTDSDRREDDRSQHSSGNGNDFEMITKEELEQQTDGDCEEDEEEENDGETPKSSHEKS
UniProt Q15464: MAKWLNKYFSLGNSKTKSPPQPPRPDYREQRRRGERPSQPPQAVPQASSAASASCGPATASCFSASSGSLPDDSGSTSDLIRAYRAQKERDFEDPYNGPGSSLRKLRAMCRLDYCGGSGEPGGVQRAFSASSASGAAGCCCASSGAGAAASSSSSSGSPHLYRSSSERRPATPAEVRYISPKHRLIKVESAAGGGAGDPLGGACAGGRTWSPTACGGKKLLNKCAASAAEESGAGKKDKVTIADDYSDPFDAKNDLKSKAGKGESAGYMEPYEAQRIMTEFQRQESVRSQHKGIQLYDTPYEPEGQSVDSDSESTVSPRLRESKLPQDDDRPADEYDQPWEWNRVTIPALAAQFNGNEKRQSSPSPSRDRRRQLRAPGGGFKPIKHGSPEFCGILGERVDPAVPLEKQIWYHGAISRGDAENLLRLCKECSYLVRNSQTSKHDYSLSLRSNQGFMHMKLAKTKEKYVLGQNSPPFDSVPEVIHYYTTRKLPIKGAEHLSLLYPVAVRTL
UniProt Q5TCZ1: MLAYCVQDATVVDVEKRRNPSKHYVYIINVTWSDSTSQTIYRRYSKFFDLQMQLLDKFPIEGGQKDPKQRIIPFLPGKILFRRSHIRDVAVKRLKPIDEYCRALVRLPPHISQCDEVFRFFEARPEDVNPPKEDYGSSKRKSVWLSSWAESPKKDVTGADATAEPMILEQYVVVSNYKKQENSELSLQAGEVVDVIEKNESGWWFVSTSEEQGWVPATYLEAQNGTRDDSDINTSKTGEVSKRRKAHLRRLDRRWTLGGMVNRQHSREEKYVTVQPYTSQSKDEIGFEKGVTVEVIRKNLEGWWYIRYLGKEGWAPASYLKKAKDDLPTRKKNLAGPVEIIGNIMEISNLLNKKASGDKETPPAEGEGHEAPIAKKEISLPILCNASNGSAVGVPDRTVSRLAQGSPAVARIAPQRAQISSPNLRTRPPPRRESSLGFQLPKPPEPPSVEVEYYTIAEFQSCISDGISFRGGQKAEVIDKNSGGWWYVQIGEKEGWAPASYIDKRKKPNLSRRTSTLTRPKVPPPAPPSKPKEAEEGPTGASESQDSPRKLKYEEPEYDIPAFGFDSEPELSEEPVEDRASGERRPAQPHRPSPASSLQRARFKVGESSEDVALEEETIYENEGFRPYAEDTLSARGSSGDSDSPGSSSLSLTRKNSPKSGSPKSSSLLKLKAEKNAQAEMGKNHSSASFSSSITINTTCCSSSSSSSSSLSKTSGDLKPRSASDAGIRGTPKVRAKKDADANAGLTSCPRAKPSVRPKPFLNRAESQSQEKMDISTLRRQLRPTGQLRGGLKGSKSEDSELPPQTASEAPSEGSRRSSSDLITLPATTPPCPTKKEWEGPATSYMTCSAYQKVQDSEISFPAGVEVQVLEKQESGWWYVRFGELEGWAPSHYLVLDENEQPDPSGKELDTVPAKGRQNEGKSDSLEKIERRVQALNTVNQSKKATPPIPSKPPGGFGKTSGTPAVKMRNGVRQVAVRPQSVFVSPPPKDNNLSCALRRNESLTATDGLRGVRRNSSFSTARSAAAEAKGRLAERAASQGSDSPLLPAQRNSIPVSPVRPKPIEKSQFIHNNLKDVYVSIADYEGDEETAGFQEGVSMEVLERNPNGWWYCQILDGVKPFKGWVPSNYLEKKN
UniProt Q7L8J4: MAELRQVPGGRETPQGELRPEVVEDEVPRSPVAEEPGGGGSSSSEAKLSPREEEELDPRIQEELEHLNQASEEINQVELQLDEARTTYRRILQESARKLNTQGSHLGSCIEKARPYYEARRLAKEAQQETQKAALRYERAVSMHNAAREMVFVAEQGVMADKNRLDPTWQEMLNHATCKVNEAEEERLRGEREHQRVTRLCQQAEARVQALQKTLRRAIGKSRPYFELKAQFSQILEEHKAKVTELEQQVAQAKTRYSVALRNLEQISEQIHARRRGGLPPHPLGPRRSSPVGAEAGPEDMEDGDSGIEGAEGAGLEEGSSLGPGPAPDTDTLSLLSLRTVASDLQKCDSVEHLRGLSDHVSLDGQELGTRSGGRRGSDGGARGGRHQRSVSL
UniProt Q96LD8, 64-84: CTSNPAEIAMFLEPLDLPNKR
UniProt Q9HC62: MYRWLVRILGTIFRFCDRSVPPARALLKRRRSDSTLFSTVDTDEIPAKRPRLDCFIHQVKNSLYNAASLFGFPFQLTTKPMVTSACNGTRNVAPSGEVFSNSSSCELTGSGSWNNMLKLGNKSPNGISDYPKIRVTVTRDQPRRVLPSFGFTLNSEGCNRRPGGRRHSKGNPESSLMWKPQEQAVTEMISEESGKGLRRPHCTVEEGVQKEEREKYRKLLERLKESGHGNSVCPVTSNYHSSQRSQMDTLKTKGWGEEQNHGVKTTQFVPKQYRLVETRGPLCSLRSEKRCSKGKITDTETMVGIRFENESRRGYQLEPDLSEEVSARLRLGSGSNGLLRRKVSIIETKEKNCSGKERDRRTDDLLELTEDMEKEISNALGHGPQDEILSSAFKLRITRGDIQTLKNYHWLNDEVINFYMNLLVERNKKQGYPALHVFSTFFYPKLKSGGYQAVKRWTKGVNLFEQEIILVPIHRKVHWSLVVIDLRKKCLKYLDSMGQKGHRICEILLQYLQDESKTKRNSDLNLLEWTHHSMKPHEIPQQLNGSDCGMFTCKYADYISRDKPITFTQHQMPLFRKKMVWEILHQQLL
UniProt Q96T21, 274-293: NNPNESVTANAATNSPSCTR

Each target was assayed with ClCC(=O)N[C@@H]1CCCc2ccccc12 (assay: log2 mean competition ratio of IA-DTB cysteine labelling (DMSO/compound) (log2 ratio); higher = stronger cysteine engagement by compound). Settings: 50 µM; treatment time: 4 h; cell line lysate: HEK293T.
Experimental: (§1)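 IA-DTB competitive cysteine chemoproteomics in HEK293T RIPA lysate. Lysates were treated with compound 29 or 30 at 50 or 200 µM for 4 h, then IA-DTB (500 µM, 1 h), trypsin-digested, NeutrAvidin-enriched and analysed by diaPASEF. Competition ratio = intensity DMSO / intensity compound (n=4 treated, n=64 DMSO); binding: mean log2 CR ≥ 1 and p ≤ 0.05 plus QC filters. Target is the cysteine site.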

| Target | log2 mean competition ratio |
| --- | --- |
| SH2D5 C397 | -0.183 |
| SCRN3 C102 (UniProt Q0VDG4) | -0.0696 |
| SFMBT1 C810 | -0.162 |
| SAPCD2 C195 | -0.393 |
| SF3A3 C145 (UniProt Q12874) | -0.0423 |
| SCAF1 C999 (UniProt Q9H7N4) | -0.222 |
| SH3D19 C455 (UniProt Q5HYK7) | -0.238 |
| SEC13 C299 (UniProt P55735) | -0.401 |
| SEC23A C180 (UniProt Q15436) | -0.0936 |
| SERINC3 C72 (UniProt Q13530) | -0.0986 |
| SEC23IP C814 (UniProt Q9Y6Y8) | -0.147 |
| SEC13 C31 (UniProt P55735) | -0.473 |
| SAMM50 C65 (UniProt Q9Y512) | -0.264 |
| SEPTIN11 C300 (UniProt Q9NVA2) | -0.335 |
| SESTD1 C363 (UniProt Q86VW0) | 0.304 |
| SETD2 C849 (UniProt Q9BYW2) | -0.591 |
| SEC31A C458 | -0.0554 |
| SCRN1 C324 (UniProt Q12765) | -0.0725 |
| SEC23A C423 (UniProt Q15436) | 0.198 |

| Target | log2 mean competition ratio |
| --- | --- |
| SEC24B C555 (UniProt O95487) | 0.0832 |
| SETD5 C821 | 0.138 |
| SCAF1 C950 (UniProt Q9H7N4) | -0.157 |
| SDHA C89 (UniProt P31040) | 0.323 |
| SEC62 C55 (UniProt Q99442) | -0.214 |
| SCRN3 C143 (UniProt Q0VDG4) | 0.313 |
| SEC13 C245 (UniProt P55735) | -0.0973 |
| SHB C215 (UniProt Q15464) | 0.000597 |
| SETD2 C1086 (UniProt Q9BYW2) | -0.0801 |
| SH3PXD2A C749 (UniProt Q5TCZ1) | 0.125 |
| SH3BP5L C348 (UniProt Q7L8J4) | 0.118 |
| SEC31A C704 | 0.0791 |
| SENP8 C64 (UniProt Q96LD8) | 0.132 |
| SIDT2 C335 (UniProt Q8NBJ9) | 0.333 |
| SETD2 C736 (UniProt Q9BYW2) | -0.41 |
| SENP2 C202 (UniProt Q9HC62) | 0.197 |
| SHMT2 C343 | -0.216 |
| SECISBP2 C291 (UniProt Q96T21) | -0.131 |

Same assay, conditions: 200 µM; treatment time: 4 h; cell line lysate: HEK293T

| Target | log2 mean competition ratio |
| --- | --- |
| SH2D5 C397 | 0.909 |
| SCRN3 C102 (UniProt Q0VDG4) | -0.0356 |
| SFMBT1 C810 | -0.0613 |
| SAPCD2 C195 | -0.333 |
| SF3A3 C145 (UniProt Q12874) | -0.0423 |
| SCAF1 C999 (UniProt Q9H7N4) | 0.219 |
| SH3D19 C455 (UniProt Q5HYK7) | 0.0197 |
| SEC13 C299 (UniProt P55735) | -0.294 |
| SEC23A C180 (UniProt Q15436) | 0.0439 |
| SERINC3 C72 (UniProt Q13530) | -0.0056 |
| SEC23IP C814 (UniProt Q9Y6Y8) | -0.347 |
| SEC13 C31 (UniProt P55735) | 0.0898 |
| SAMM50 C65 (UniProt Q9Y512) | 0.0573 |
| SEPTIN11 C300 (UniProt Q9NVA2) | -0.191 |
| SESTD1 C363 (UniProt Q86VW0) | 0.101 |
| SETD2 C849 (UniProt Q9BYW2) | 0.00807 |
| SEC31A C458 | -0.205 |
| SCRN1 C324 (UniProt Q12765) | 0.0186 |
| SEC23A C423 (UniProt Q15436) | -0.128 |

| Target | log2 mean competition ratio |
| --- | --- |
| SEC24B C555 (UniProt O95487) | 0.0416 |
| SETD5 C821 | -0.154 |
| SCAF1 C950 (UniProt Q9H7N4) | 0.0605 |
| SDHA C89 (UniProt P31040) | 0.737 |
| SEC62 C55 (UniProt Q99442) | -0.246 |
| SCRN3 C143 (UniProt Q0VDG4) | 0.884 |
| SEC13 C245 (UniProt P55735) | 0.000821 |
| SHB C215 (UniProt Q15464) | 0.0341 |
| SETD2 C1086 (UniProt Q9BYW2) | 0.0036 |
| SH3PXD2A C749 (UniProt Q5TCZ1) | 0.0185 |
| SH3BP5L C348 (UniProt Q7L8J4) | -0.0739 |
| SEC31A C704 | -0.0231 |
| SENP8 C64 (UniProt Q96LD8) | -0.0883 |
| SIDT2 C335 (UniProt Q8NBJ9) | -0.221 |
| SETD2 C736 (UniProt Q9BYW2) | 0.711 |
| SENP2 C202 (UniProt Q9HC62) | -0.0367 |
| SHMT2 C343 | -0.0984 |
| SECISBP2 C291 (UniProt Q96T21) | 0.116 |

The targets below were run with ClCC(=O)N[C@H]1CCCc2ccccc12 in the same assay as above. Settings: 50 µM; treatment time: 4 h; cell line lysate: HEK293T.
Experimental: as §1

| Target | log2 mean competition ratio |
| --- | --- |
| SH2D5 C397 | -0.151 |
| SCRN3 C102 (UniProt Q0VDG4) | 0.383 |
| SFMBT1 C810 | 0.312 |
| SAPCD2 C195 | 0.395 |
| SF3A3 C145 (UniProt Q12874) | 0.154 |
| SCAF1 C999 (UniProt Q9H7N4) | -0.241 |
| SH3D19 C455 (UniProt Q5HYK7) | 0.393 |
| SEC13 C299 (UniProt P55735) | -0.117 |
| SEC23A C180 (UniProt Q15436) | -0.577 |
| SERINC3 C72 (UniProt Q13530) | -0.359 |
| SEC23IP C814 (UniProt Q9Y6Y8) | -0.122 |
| SEC13 C31 (UniProt P55735) | -0.552 |
| SAMM50 C65 (UniProt Q9Y512) | -0.247 |
| SEPTIN11 C300 (UniProt Q9NVA2) | -0.236 |
| SESTD1 C363 (UniProt Q86VW0) | 0.281 |
| SETD2 C849 (UniProt Q9BYW2) | -0.0923 |
| SEC31A C458 | 0.136 |
| SCRN1 C324 (UniProt Q12765) | -0.236 |
| SEC23A C423 (UniProt Q15436) | 0.146 |

| Target | log2 mean competition ratio |
| --- | --- |
| SEC24B C555 (UniProt O95487) | -0.0822 |
| SETD5 C821 | -0.102 |
| SCAF1 C950 (UniProt Q9H7N4) | 0.027 |
| SDHA C89 (UniProt P31040) | 0.00787 |
| SEC62 C55 (UniProt Q99442) | 0.341 |
| SCRN3 C143 (UniProt Q0VDG4) | 0.203 |
| SEC13 C245 (UniProt P55735) | 0.248 |
| SHB C215 (UniProt Q15464) | 0.227 |
| SETD2 C1086 (UniProt Q9BYW2) | 0.204 |
| SH3PXD2A C749 (UniProt Q5TCZ1) | 0.448 |
| SH3BP5L C348 (UniProt Q7L8J4) | -0.134 |
| SEC31A C704 | 0.178 |
| SENP8 C64 (UniProt Q96LD8) | 0.152 |
| SIDT2 C335 (UniProt Q8NBJ9) | -0.152 |
| SETD2 C736 (UniProt Q9BYW2) | -0.0671 |
| SENP2 C202 (UniProt Q9HC62) | 0.36 |
| SHMT2 C343 | 0.0776 |
| SECISBP2 C291 (UniProt Q96T21) | 0.114 |
